Data reported in patent publication US20200331882A1, “COMPOUND FOR SIMULTANEOUSLY INHIBITING LSD1 AND HDAC TARGETS AND APPLICATION THEREOF” (PEKING UNIVERSITY SHENZHEN GRADUATE SCHOOL, priority 2018, published 2020).

Key:
Experiment in all cases: CellTiter-Glo cell proliferation
Type in all cases: cell-based
Conditions in all cases: CTG, 72 hours, read-out: Absolute IC50
[1] = test system: MCF7
Method: (§1) The effect of the present invention compound ZZY-003 on the cell proliferation of 50 cell lines was evaluated by CellTiter-Glo (CTG) method, and the 50% inhibitory concentration was calculated by detecting the cell viability after treatment with different drug concentrations. The cells were resuscitated and cultured in their respective culture media. The cells in logarithmic growth phase were harvested and the cells were counted by cell counter. The cell viability was detected by Trypan blue exclusion method to ensure that the cell line viability was more than 96%. The cell concentration was adjusted by diluting with the culture medium, and 90 μL cell suspension was added to the 96-well cell plate (including the cell control T0 on the day of drug treatment) to make the cell density reach the specified concentration. The cells in the 96-well plate were cultured overnight at 37° C., 5% CO2 and 95% humidity. 10 μL culture medium was added to the control cell culture plate. CellTiter-Glo reagent and cell culture plate were placed at room temperature to balance for 30 minutes. The same volume of CellTiter-Glo reagent was added to each well. Vibrate on the orbital shaker for 2 min to make the cells fully lytic. The cell culture plate was placed at room temperature to balance for 10 minutes. Chemiluminescence values were read with EnVision. The storage solution was formed by dissolving the tested compound with the corresponding solvent and diluted in gradient to obtain 10 times working concentration solution, and 10 times solution of positive drug was also prepared. 10 μL drug solution was added to each well in the 96-well plate in which the cells were inoculated, and each cell concentration was provided with three duplicate wells. […] Chemiluminescence values were read with EnVision. […] Cell survival rate (%)=(Lum drug to be detected−Lum culture medium control)/(Lum cell control−Lum culture medium control)×100%; Lum cell control−Lum culture medium control was set to 100%, LumMedium control value was set to 0%;

[2] = test system: MDA-MB-231
Method: as §1

[3] = test system: A549
Method: as §1

N.N.[Cl][Pt][Cl] [Cisplatin, reference compound] gave an IC50 [1] of 22 µM, an IC50 [2] of 20.6 µM and an IC50 [3] of 7.89 µM.
